Measurements as given in paper doi:10.1101/717769.

Amino acid sequences for entries named in this document (tags omitted).
UniProt O14646: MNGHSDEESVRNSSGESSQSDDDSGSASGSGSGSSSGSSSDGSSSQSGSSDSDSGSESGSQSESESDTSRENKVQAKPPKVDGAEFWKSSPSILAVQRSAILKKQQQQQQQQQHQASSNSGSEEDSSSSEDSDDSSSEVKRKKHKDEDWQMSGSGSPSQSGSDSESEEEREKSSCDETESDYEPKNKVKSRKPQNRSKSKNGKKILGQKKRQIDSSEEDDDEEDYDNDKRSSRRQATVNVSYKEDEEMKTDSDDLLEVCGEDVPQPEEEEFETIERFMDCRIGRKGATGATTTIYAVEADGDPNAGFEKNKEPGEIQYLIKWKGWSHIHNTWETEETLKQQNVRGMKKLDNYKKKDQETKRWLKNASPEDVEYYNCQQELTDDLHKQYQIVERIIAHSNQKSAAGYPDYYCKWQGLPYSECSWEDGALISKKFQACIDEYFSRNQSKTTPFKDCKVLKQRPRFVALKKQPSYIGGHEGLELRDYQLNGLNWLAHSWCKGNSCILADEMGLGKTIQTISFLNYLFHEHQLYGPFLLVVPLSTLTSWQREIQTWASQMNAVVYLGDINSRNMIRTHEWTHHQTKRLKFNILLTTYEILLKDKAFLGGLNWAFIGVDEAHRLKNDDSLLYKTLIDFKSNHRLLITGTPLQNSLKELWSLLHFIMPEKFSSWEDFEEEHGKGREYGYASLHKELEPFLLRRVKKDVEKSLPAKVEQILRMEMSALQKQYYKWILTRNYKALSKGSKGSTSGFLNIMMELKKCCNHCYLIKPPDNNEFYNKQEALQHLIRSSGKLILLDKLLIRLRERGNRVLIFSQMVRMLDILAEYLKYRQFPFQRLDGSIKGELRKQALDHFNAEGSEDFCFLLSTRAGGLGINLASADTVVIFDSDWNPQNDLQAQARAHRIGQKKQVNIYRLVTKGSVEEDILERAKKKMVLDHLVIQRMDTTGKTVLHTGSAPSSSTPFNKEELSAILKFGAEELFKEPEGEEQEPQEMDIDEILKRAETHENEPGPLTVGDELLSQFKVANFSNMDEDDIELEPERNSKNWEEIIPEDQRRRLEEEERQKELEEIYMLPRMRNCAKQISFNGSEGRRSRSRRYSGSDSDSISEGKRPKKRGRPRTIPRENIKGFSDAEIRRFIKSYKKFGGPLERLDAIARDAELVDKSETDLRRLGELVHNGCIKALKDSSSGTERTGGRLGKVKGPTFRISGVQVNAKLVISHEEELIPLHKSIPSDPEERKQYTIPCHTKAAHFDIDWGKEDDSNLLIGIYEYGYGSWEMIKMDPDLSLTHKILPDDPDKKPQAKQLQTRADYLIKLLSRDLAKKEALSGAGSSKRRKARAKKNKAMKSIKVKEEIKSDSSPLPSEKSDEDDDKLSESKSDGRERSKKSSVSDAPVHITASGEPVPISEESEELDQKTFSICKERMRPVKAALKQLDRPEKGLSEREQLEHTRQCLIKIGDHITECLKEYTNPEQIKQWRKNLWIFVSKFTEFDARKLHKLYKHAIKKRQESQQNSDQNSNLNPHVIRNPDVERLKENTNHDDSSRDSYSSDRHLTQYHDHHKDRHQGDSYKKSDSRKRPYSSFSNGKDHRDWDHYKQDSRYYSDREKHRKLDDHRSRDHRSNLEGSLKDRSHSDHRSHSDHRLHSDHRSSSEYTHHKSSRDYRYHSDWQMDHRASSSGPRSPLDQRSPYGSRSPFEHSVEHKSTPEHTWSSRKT
UniProt Q9Y4B6: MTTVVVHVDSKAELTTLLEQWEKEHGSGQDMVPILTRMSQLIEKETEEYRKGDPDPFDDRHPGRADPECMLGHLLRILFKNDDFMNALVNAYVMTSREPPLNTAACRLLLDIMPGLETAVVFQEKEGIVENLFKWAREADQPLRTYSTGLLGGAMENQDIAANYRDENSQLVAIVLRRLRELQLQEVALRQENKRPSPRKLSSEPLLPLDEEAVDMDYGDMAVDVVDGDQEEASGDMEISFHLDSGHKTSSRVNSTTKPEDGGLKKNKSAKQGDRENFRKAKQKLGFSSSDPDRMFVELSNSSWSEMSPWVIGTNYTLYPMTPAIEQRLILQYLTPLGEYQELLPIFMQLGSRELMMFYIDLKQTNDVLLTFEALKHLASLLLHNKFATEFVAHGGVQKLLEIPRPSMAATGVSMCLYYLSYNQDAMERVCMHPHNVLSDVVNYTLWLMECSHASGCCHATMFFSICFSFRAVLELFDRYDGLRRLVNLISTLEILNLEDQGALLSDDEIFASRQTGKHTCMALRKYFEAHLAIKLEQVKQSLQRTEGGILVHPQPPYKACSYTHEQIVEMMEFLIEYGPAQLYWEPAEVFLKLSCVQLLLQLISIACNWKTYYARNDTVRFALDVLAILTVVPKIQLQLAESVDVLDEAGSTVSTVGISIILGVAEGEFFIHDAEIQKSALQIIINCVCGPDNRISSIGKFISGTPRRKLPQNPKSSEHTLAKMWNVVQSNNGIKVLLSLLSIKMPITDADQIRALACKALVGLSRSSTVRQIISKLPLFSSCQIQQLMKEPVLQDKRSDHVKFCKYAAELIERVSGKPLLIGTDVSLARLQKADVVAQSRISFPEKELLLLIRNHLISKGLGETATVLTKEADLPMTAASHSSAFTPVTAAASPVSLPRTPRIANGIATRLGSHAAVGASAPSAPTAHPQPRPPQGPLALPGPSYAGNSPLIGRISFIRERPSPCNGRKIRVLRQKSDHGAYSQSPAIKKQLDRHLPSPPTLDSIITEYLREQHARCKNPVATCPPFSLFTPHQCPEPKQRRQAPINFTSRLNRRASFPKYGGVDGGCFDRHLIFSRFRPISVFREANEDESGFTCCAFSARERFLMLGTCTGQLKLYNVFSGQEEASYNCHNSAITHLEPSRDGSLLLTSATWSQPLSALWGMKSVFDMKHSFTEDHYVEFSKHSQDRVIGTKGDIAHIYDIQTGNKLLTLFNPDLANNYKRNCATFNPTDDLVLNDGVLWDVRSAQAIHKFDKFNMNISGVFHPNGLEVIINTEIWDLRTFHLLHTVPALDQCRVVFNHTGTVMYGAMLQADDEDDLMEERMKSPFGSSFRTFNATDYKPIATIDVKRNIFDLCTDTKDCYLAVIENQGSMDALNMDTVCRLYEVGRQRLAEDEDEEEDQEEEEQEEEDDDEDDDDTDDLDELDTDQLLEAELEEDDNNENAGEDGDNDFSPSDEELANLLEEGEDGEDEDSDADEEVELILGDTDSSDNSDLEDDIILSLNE
UniProt Q8IZL8: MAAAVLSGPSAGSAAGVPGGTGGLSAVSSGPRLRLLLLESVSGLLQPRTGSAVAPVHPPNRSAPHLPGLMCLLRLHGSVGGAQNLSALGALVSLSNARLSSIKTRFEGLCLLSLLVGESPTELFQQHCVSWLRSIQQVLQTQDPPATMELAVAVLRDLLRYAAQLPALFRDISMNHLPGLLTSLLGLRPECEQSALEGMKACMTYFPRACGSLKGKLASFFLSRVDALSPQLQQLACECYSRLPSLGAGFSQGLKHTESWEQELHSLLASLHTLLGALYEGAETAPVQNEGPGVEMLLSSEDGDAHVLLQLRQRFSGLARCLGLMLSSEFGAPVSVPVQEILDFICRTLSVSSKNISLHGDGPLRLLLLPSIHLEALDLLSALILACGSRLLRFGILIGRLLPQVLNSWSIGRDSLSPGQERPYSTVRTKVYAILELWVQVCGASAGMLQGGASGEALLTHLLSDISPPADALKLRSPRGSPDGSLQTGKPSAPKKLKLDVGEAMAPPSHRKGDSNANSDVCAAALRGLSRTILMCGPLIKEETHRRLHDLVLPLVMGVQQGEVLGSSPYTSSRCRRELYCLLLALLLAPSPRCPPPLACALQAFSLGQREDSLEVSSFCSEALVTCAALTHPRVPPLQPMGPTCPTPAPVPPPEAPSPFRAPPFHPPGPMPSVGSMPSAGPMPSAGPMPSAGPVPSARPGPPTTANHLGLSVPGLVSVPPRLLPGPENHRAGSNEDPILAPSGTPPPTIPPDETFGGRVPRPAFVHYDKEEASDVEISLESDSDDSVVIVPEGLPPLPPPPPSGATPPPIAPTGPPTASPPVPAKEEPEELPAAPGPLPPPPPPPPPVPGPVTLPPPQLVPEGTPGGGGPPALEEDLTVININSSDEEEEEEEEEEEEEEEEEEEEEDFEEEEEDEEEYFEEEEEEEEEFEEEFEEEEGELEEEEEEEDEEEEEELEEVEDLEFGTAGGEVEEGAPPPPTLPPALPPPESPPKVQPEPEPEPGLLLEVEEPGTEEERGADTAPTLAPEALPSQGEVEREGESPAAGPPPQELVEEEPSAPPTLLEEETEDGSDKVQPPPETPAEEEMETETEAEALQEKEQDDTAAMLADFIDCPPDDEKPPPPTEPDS

Each molecule was assayed against TAP6-Merlin (UniProt P35240) (assay: affinity purification with mass spectrometry).

Molecule	binding
CHD1 (endogenous) (from UniProt O14646 1-1710)	binds
TAT-SF1 (endogenous) (protein, UniProt O43719 1-755) MSGTNLDGNDEFDEQLRMQELYGDGKDGDTQTDAGGEPDSLGQQPTDTPYEWDLDKKAWFPKITEDFIATYQANYGFSNDGASSSTANVEDVHARTAEEPPQEKAPEPTDARKKGEKRKAESGWFHVEEDRNTNVYVSGLPPDITVDEFIQLMSKFGIIMRDPQTEEFKVKLYKDNQGNLKGDGLCCYLKRESVELALKLLDEDEIRGYKLHVEVAKFQLKGEYDASKKKKKCKDYKKKLSMQQKQLDWRPERRAGPSRMRHERVVIIKNMFHPMDFEDDPLVLNEIREDLRVECSKFGQIRKLLLFDRHPDGVASVSFRDPEEADYCIQTLDGRWFGGRQITAQAWDGTTDYQVEETSREREERLRGWEAFLNAPEANRGLRRSDSVSASERAGPSRARHFSEHPSTSKMNAQETATGMAFEEPIDEKKFEKTEDGGEFEEGASENNAKESSPEKEAEEGCPEKESEEGCPKRGFEGSCSQKESEEGNPVRGSEEDSPKKESKKKTLKNDCEENGLAKESEDDLNKESEEEVGPTKESEEDDSEKESDEDCSEKQSEDGSEREFEENGLEKDLDEEGSEKELHENVLDKELEENDSENSEFEDDGSEKVLDEEGSEREFDEDSDEKEEEEDTYEKVFDDESDEKEDEEYADEKGLEAADKKAEEGDADEKLFEESDDKEDEDADGKEVEDADEKLFEDDDSNEKLFDEEEDSSEKLFDDSDERGTLGGFGSVEEGPLSTGSSFILSSDDDDDDI	binds
AMOTL1 (endogenous) (protein, UniProt Q8IY63 1-956) MWRAKLRRGTCEPAVKGSPSACYSPSSPVQVLEDSTYFSPDFQLYSGRHETSALTVEATSSIREKVVEDPLCNFHSPNFLRISEVEMRGSEDAAAGTVLQRLIQEQLRYGTPTENMNLLAIQHQATGSAGPAHPTNNFSSTENLTQEDPQMVYQSARQEPQGQEHQVDNTVMEKQVRSTQPQQNNEELPTYEEAKAQSQFFRGQQQQQQQQGAVGHGYYMAGGTSQKSRTEGRPTVNRANSGQAHKDEALKELKQGHVRSLSERIMQLSLERNGAKQHLPGSGNGKGFKVGGGPSPAQPAGKVLDPRGPPPEYPFKTKQMMSPVSKTQEHGLFYGDQHPGMLHEMVKPYPAPQPVRTDVAVLRYQPPPEYGVTSRPCQLPFPSTMQQHSPMSSQTSSASGPLHSVSLPLPLPMALGAPQPPPAASPSQQLGPDAFAIVERAQQMVEILTEENRVLHQELQGYYDNADKLHKFEKELQRISEAYESLVKSTTKRESLDKAMRNKLEGEIRRLHDFNRDLRDRLETANRQLSSREYEGHEDKAAEGHYASQNKEFLKEKEKLEMELAAVRTASEDHRRHIEILDQALSNAQARVIKLEEELREKQAYVEKVEKLQQALTQLQSACEKREQMERRLRTWLERELDALRTQQKHGNGQPANMPEYNAPALLELVREKEERILALEADMTKWEQKYLEESTIRHFAMNAAATAAAERDTTIINHSRNGSYGESSLEAHIWQEEEEVVQANRRCQDMEYTIKNLHAKIIEKDAMIKVLQQRSRKDAGKTDSSSLRPARSVPSIAAATGTHSRQTSLTSSQLAEEKKEEKTWKGSIGLLLGKEHHEHASAPLLPPPPTSALSSIASTTAASSAHAKTGSKDSSTQTDKSAELFWPSMASLPSRGRLSTTPAHSPVLKHPAAKGTAEKLENSPGHGKSPDHRGRVSSLLHKPEFPDGEMMEVLI	binds

Further lines, results first:

binding	Molecule
binds	VPRBP/DCAF1 (endogenous) (from UniProt Q9Y4B6 1-1507)
binds	PELP1 (endogenous) (from UniProt Q8IZL8 1-1130)

No constants are given. Whether binding was seen depends on the method and setting. In cells and extracts the contact can be indirect. These calls come from enrichment with a bait or labelling near it, and not all partners need be listed.
